The list shows a part of the results.
Columns and labels:
Assay in all cases: log2 fold change, soluble protein after heating vs DMSO (PISA); higher = thermal stabilisation; K562 cells, 10 uM, 30 min; active = over 0.2 and 3.5 SD of the protein, either way, in both replicates (recomputed)
filanesib = compound: CON(C)C(=O)N1N=C(c2cc(F)ccc2F)S[C@@]1(CCCN)c1ccccc1 [filanesib]
Summary of the method: (§1)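 Thermal stability values are relative to control samples and come from duplicates. They are expressed as log2 fold changes. For measurement, K562 cells (2×10^6 cells/mL) received 10 μM compound for 30 min, and aliquots were heated for 3 min over 48°C-58°C, pooled, and extracted at 4°C in PBS with 0.5% NP-40. Soluble protein, the supernatant after 21,000xg for 90 min, was quantified by TMTpro 16plex LC-MS/MS with equalised channel sums.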

Amino acid sequences for entries named in this document (tags omitted). A change or cut given only in a name is not applied to a line headed by its entry.
UniProt Q6ZNE5, whole entry, looked up: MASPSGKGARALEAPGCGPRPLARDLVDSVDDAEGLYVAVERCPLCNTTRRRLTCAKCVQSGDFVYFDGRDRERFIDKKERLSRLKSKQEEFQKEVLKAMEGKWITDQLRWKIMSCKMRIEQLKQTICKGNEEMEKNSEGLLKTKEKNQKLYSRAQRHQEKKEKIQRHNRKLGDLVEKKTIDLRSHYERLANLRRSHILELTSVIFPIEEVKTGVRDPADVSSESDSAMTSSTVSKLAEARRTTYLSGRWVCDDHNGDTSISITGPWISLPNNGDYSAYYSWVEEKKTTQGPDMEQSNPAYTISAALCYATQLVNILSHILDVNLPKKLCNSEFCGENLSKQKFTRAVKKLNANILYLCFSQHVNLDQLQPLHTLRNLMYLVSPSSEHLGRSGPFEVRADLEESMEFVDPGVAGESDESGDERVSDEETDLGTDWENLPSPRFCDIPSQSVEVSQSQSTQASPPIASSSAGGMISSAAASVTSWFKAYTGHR
UniProt P27449, whole entry, looked up: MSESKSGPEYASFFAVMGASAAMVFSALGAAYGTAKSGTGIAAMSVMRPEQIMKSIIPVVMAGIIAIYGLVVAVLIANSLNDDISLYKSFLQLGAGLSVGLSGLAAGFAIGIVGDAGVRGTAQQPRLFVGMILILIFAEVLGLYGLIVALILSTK
UniProt P98198: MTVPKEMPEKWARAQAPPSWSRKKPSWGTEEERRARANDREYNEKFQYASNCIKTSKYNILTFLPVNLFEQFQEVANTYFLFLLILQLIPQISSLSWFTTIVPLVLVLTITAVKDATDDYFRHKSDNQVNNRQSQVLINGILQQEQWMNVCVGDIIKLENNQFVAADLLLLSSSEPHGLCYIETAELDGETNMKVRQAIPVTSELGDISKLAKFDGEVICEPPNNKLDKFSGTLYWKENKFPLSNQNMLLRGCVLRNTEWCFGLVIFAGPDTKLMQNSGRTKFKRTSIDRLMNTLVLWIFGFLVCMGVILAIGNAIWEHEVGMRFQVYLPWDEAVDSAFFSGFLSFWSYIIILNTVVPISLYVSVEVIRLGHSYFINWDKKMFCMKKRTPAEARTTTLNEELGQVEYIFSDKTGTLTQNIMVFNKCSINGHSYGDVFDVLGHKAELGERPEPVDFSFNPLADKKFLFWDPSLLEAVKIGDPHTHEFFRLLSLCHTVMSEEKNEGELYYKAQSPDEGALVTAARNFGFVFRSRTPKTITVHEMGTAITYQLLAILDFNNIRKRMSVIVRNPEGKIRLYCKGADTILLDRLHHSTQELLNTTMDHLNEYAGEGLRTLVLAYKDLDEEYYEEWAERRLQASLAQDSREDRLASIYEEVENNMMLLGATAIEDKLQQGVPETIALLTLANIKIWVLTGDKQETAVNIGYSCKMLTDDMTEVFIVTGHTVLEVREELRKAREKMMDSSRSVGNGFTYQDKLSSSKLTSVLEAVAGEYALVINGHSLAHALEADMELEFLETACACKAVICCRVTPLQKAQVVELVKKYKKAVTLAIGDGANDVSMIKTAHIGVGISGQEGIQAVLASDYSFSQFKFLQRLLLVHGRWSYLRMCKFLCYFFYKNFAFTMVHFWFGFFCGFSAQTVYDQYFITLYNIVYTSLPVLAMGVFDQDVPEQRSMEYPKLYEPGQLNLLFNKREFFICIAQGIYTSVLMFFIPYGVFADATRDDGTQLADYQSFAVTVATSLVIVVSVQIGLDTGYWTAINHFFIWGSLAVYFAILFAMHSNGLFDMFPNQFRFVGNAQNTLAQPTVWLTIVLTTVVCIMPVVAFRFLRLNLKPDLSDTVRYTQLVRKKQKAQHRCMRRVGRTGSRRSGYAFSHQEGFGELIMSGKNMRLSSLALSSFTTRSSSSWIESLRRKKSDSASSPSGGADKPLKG
UniProt Q9H1I8: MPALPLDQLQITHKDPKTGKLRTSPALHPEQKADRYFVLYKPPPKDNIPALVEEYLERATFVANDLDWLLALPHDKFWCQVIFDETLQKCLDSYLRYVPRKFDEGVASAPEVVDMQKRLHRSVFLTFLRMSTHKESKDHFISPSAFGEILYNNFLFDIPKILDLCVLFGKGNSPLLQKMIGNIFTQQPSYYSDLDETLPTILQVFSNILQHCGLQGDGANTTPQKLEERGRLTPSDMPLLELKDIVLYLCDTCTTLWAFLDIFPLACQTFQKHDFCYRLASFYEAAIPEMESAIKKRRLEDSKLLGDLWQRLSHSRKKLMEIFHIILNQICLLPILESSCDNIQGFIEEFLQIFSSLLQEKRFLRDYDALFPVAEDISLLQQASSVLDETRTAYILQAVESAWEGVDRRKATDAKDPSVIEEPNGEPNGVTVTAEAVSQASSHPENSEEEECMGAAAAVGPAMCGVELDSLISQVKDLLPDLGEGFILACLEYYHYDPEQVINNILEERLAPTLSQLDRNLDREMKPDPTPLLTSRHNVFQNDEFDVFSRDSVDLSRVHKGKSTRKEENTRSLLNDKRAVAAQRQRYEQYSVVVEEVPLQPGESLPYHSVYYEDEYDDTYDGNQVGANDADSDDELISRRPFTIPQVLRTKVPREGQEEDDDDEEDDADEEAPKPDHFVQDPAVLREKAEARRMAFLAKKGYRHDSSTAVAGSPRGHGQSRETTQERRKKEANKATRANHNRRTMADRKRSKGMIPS
UniProt P18846: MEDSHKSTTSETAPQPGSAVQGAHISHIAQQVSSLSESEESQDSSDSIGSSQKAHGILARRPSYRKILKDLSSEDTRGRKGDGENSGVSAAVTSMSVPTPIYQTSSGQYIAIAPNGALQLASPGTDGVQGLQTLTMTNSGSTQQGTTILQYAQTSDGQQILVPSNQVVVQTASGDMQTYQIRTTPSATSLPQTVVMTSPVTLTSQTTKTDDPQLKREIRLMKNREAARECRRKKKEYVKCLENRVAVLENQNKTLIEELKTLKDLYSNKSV
UniProt Q9Y6H3: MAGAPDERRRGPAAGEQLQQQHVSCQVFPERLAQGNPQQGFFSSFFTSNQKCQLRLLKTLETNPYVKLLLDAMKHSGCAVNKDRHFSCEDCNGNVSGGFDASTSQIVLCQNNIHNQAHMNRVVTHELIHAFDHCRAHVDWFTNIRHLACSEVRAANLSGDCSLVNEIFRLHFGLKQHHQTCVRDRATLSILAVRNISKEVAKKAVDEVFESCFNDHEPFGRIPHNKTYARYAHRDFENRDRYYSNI
UniProt Q9H0Y0: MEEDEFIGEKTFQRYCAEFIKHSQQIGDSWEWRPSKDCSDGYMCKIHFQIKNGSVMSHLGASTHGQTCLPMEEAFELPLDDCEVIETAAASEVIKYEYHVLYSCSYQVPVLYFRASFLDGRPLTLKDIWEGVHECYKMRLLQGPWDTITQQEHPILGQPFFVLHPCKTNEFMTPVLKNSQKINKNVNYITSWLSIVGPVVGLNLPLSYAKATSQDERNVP
UniProt Q676U5: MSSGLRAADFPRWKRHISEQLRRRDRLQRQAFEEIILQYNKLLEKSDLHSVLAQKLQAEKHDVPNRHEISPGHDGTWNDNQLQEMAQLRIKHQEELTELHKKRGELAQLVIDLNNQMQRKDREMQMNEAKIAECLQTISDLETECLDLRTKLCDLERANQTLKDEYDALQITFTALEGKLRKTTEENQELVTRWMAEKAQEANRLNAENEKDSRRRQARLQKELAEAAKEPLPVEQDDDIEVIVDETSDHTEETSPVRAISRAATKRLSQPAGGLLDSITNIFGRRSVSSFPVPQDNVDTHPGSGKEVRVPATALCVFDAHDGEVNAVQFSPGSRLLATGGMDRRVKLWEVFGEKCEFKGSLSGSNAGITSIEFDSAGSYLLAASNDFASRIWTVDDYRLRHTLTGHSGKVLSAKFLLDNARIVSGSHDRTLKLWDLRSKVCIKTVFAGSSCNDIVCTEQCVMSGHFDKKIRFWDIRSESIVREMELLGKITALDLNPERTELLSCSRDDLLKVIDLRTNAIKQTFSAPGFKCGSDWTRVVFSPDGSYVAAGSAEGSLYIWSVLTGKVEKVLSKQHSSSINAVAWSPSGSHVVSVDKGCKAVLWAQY
UniProt Q3SXY8: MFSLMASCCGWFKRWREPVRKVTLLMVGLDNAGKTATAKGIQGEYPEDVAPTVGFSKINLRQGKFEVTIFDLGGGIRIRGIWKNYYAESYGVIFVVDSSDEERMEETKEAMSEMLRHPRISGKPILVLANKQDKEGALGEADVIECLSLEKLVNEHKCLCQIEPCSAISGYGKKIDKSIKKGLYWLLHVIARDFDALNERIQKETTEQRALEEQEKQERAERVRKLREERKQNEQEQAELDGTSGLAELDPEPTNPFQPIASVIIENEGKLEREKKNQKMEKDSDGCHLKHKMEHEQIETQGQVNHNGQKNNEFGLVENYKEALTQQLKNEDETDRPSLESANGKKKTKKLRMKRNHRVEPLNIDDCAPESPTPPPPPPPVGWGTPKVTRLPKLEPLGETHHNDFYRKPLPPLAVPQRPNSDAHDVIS
UniProt Q8N5I2: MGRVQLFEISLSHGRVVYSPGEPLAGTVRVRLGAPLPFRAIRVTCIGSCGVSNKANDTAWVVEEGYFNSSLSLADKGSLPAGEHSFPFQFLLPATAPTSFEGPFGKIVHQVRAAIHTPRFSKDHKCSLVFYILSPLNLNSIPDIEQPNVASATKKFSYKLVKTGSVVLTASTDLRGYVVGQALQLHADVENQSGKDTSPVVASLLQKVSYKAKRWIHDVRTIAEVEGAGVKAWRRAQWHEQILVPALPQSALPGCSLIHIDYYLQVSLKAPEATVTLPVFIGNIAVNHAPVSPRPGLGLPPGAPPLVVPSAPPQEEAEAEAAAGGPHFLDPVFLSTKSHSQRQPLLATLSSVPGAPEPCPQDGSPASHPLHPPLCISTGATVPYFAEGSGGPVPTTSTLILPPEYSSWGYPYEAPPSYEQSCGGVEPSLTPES
UniProt L0R819, whole entry, looked up: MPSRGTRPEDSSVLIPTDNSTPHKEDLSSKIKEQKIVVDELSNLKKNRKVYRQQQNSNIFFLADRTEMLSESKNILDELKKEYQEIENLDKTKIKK
UniProt Q76L83: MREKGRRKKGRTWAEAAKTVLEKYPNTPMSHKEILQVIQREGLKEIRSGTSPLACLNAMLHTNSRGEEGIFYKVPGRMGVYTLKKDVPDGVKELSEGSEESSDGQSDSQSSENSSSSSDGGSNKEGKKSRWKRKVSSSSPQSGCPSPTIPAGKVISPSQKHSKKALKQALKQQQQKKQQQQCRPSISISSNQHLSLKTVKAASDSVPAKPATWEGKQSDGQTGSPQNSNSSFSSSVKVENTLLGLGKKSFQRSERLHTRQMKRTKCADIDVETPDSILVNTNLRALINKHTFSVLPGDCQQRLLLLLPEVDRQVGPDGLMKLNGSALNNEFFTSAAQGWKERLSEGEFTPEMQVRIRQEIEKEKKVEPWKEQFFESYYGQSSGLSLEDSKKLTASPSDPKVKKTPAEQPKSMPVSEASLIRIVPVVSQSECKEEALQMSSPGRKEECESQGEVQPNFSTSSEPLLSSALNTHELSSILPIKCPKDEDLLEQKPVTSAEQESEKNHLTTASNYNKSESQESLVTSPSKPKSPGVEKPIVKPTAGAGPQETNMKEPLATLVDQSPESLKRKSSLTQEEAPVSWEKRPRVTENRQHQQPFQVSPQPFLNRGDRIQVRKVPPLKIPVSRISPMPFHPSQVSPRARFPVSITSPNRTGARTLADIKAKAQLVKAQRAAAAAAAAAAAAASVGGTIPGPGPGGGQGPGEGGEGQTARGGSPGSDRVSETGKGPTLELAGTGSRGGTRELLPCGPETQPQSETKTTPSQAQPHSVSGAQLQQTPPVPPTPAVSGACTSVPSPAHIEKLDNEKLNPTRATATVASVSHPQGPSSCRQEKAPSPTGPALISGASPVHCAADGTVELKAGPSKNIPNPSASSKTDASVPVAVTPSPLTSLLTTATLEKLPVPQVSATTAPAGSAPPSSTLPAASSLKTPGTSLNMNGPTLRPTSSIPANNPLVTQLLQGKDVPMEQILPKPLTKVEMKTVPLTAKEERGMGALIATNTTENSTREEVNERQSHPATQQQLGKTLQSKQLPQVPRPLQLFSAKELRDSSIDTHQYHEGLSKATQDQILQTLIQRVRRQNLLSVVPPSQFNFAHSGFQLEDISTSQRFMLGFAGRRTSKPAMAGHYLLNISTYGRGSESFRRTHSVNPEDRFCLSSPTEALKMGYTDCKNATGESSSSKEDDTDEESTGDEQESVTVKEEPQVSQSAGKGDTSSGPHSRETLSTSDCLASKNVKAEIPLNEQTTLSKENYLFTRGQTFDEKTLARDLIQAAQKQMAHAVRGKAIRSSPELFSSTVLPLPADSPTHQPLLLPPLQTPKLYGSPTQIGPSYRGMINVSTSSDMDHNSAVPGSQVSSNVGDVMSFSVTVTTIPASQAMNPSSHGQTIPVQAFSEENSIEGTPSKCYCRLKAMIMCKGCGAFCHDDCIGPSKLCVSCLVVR
UniProt P40617: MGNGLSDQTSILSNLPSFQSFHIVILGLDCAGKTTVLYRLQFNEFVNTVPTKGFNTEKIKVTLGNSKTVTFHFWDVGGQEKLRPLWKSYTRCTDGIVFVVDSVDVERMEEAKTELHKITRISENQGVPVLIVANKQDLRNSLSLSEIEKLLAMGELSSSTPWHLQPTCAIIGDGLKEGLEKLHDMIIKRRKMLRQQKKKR

zotarolimus = compound: CO[C@H]1C[C@@H]2CC[C@@H](C)[C@@](O)(O2)C(=O)C(=O)N2CCCC[C@H]2C(=O)O[C@H]([C@H](C)C[C@@H]2CC[C@H](n3cnnn3)[C@H](OC)C2)CC(=O)[C@H](C)/C=C(\C)[C@@H](O)[C@@H](OC)C(=O)[C@H](C)C[C@H](C)/C=C/C=C/C=C/1C [zotarolimus]
Summary of the method: as §1

idasanutlin = compound: COc1cc(C(=O)O)ccc1NC(=O)[C@@H]1N[C@@H](CC(C)(C)C)[C@](C#N)(c2ccc(Cl)cc2F)[C@H]1c1cccc(Cl)c1F [idasanutlin]
Summary of the method: as §1

alisertib = compound: COc1cc(Nc2ncc3c(n2)-c2ccc(Cl)cc2C(c2c(F)cccc2OC)=NC3)ccc1C(=O)O [alisertib]
Summary of the method: as §1

[1] = compound: COc1cc2nc(-c3cc(F)ccc3O)nc(N[C@@H]3CNC[C@H]3C(C)(C)O)c2cc1OC
Summary of the method: as §1

gefitinib = compound: COc1cc2ncnc(Nc3ccc(F)c(Cl)c3)c2cc1OCCCN1CCOCC1 [gefitinib]
Summary of the method: as §1

[2] = compound: COc1cccc2cc(-c3nc([C@H]4CC[C@H](C(=O)O)CC4)n4ncnc(N)c34)[nH]c12
Summary of the method: as §1

lapatinib = compound: CS(=O)(=O)CCNCc1ccc(-c2ccc3ncnc(Nc4ccc(OCc5cccc(F)c5)c(Cl)c4)c3c2)o1 [lapatinib]
Summary of the method: as §1

pictilisib = compound: CS(=O)(=O)N1CCN(Cc2cc3nc(-c4cccc5[nH]ncc45)nc(N4CCOCC4)c3s2)CC1 [pictilisib]
Summary of the method: as §1

[3] = compound: COC1=CC=C(C=C1)CN2C=CC3=C2C=C(C=C3)C(=O)NO
Summary of the method: as §1

Measured: log2 fold change

ARL5B (UniProt Q96KC2)
inactive: filanesib -0.053 | zotarolimus -0.087 | idasanutlin -0.222 | alisertib -0.006 | [1] 0.106 | gefitinib 0.142 | [2] 0.089 | lapatinib -0.048 | pictilisib -0.012

ATG14 (UniProt Q6ZNE5)
inactive: filanesib 0.03 | idasanutlin -0.014 | [1] 0.286 | lapatinib -0.084

ATP2B2 (UniProt Q01814)
inactive: filanesib 0.068 | zotarolimus 0.092 | idasanutlin -0.052 | [1] 0.002 | lapatinib -0.222 | pictilisib 0.438

ATP6V0C (UniProt P27449)
inactive: filanesib -0.235 | zotarolimus 0.057 | idasanutlin 0.101 | alisertib 0.167 | [1] -0.472 | gefitinib 0.039 | [2] -0.052 | lapatinib 0.123 | pictilisib -0.491

ARRB1 isoform 2 (UniProt P49407)
inactive: [3] 0.087 | zotarolimus 0 | idasanutlin -0.112 | alisertib 0.022 | [1] 0.074 | [2] 0.09 | lapatinib 0.033 | pictilisib 0.03

ASB6 (UniProt Q9NWX5)
inactive: [3] 0.298 | filanesib 0.008 | idasanutlin -0.029 | alisertib -0.214 | [1] -0.083 | gefitinib -0.034 | [2] 0 | lapatinib -0.055 | pictilisib 0.157

ATP8B2 isoform 3 (UniProt P98198)
inactive: idasanutlin 0.218

ASXL1 (UniProt Q8IXJ9)
inactive: filanesib 0.214 | zotarolimus 0.182 | alisertib -0.157 | [1] -0.085 | [2] 0.016 | lapatinib 0.159

ATP1B2 (UniProt P14415)
inactive: [3] -0.014 | filanesib -0.127 | zotarolimus -0.153 | idasanutlin 0.15 | alisertib -0.049 | [1] -0.022 | [2] 0.013 | lapatinib -0.104 | pictilisib 0.095

ASCC2 (UniProt Q9H1I8)
inactive: [3] 0.153 | filanesib 0.263 | zotarolimus -0.169 | alisertib -0.119 | [2] -0.172

ATF6 (UniProt P18850)
inactive: filanesib 0.006

ATF7IP isoform 4 (UniProt Q6VMQ6)
inactive: [3] 0.05 | zotarolimus 0.011 | idasanutlin 0.08 | alisertib -0.017 | gefitinib -0.004 | [2] 0.188 | pictilisib 0.056

ARMC8 isoform 6 (UniProt Q8IUR7)
inactive: idasanutlin 0.072 | gefitinib 0.072

ARSK (UniProt Q6UWY0)
inactive: [3] 0.081 | zotarolimus 0.045 | alisertib -0.115 | gefitinib 0.024 | [2] 0.067

ATP2C1 isoform 3 (UniProt P98194)
inactive: zotarolimus -0.008 | idasanutlin -0.264 | alisertib -0.053 | [1] -0.022 | [2] 0.056 | lapatinib 0.081

ATG2A (UniProt Q2TAZ0)
inactive: [3] 0.037 | pictilisib -0.251

ASNSD1 (UniProt Q9NWL6)
inactive: [3] 0.048 | filanesib -0.065 | gefitinib 0.11

ATF1 (UniProt P18846)
active: zotarolimus -0.51
inactive: filanesib 0.097 | idasanutlin -0.082 | alisertib -0.101 | [1] -0.071 | gefitinib 0.052 | [2] 0.006 | lapatinib -0.011 | pictilisib -0.039

ATE1 (UniProt O95260)
inactive: [3] -0.109 | zotarolimus -0.05 | idasanutlin 0.078 | [1] -0.013 | lapatinib 0.034

ATP6V1B2 (UniProt P21281)
inactive: [3] 0.006 | filanesib -0.018 | zotarolimus 0.006 | idasanutlin 0.039 | alisertib -0.047 | [1] -0.089 | gefitinib -0.103 | [2] 0.013 | lapatinib -0.032 | pictilisib -0.039

ATP23 (UniProt Q9Y6H3)
inactive: [3] 0.003 | filanesib -0.082 | zotarolimus 0.005 | idasanutlin 0.032 | alisertib -0.033 | [1] -0.096 | gefitinib -0.062 | [2] 0.067 | lapatinib 0.007 | pictilisib 0.018

ARPIN isoform 2 (UniProt Q7Z6K5)
inactive: [3] -0.112 | idasanutlin -0.042 | alisertib -0.134 | [1] -0.173 | gefitinib 0.063 | [2] 0.29 | lapatinib 0.155 | pictilisib -0.361

ATP5F1B (UniProt H0YI37)
inactive: filanesib 0.121 | [1] 0.237 | lapatinib -0.379 | pictilisib 0.177

ATG10 (UniProt Q9H0Y0)
inactive: gefitinib -0.1 | pictilisib 0.113

ATF3 (UniProt P18847)
inactive: filanesib 0.531 | zotarolimus -0.22 | idasanutlin 0.115 | [1] -0.035 | gefitinib -0.025 | lapatinib 0.099

Taken from above (two entries):
ATP5F1B (UniProt H0YI37)
inactive: filanesib 0.121 | [1] 0.237 | lapatinib -0.379 | pictilisib 0.177

ATG10 (UniProt Q9H0Y0)
inactive: gefitinib -0.1 | pictilisib 0.113

(continued)

ASS1 (UniProt P00966)
inactive: filanesib -0.101 | zotarolimus 0.012 | idasanutlin -0.085 | alisertib 0.254 | [1] 0.047 | gefitinib -0.005 | [2] 0.056 | lapatinib -0.012 | pictilisib 0.018

ATG4A (UniProt Q8WYN0)
inactive: zotarolimus -0.023

ATPSCKMT (UniProt Q6P4H8)
inactive: filanesib -0.136 | zotarolimus -0.015 | idasanutlin -0.088 | alisertib 0.009 | [1] 0.053 | gefitinib -0.046 | [2] -0.006 | lapatinib 0.032 | pictilisib 0.155

ATG16L1 (UniProt Q676U5)
inactive: [3] 0.033 | filanesib -0.083 | zotarolimus -0.036 | idasanutlin -0.04 | alisertib -0.054 | [1] -0.003 | gefitinib -0.018 | [2] 0.057 | lapatinib 0.029 | pictilisib 0.03

ARL13B (UniProt Q3SXY8)
inactive: [3] -0.038 | filanesib -0.351 | idasanutlin -0.02 | alisertib -0.087 | gefitinib -0.007 | [2] 0.125 | pictilisib 0.111

ARRDC1 (UniProt Q8N5I2)
inactive: filanesib 0.013 | zotarolimus 0.182 | alisertib 0.152 | [1] -0.098 | gefitinib -0.009 | [2] 0 | lapatinib 0.01 | pictilisib -0.092

ASDURF (UniProt L0R819)
inactive: [3] 0.048 | filanesib 0.036 | zotarolimus -0.019 | idasanutlin 0.022 | alisertib -0.031 | [1] -0.052 | gefitinib -0.033 | [2] 0.069 | lapatinib -0.018 | pictilisib 0.024

ASXL2 (UniProt Q76L83)
inactive: idasanutlin -0.043

ARL4A (UniProt P40617)
inactive: idasanutlin 0.056 | alisertib 0.042 | [2] 0.094

ATE1 isoform 2 (UniProt O95260)
inactive: [3] -0.086 | filanesib -0.012 | zotarolimus -0.012 | idasanutlin -0.031 | alisertib -0.004 | [1] 0.054 | gefitinib 0.02 | [2] 0.025 | lapatinib -0.009 | pictilisib 0.155

ATG4C (UniProt Q96DT6)
inactive: [3] 0.019 | filanesib -0.078 | zotarolimus -0.01 | alisertib -0.096 | [1] 0.051 | gefitinib 0.061 | [2] 0.068 | lapatinib 0.017 | pictilisib -0.266

Source: the supplement of paper PMC10849652
